Laboratory results reported in paper PMC6733861.
These are yes or no findings as the source states them, for the method shown. Binding seen in cells or lysates may run through a third protein. These calls come from enrichment with a bait or labelling near it, and not all partners need be listed. For some assays here: No binding means not detected with the bait.

Chains of the proteins cited; added tags and fusions are not shown. Residues count along the entry.
UniProt P19491, residues 22-883: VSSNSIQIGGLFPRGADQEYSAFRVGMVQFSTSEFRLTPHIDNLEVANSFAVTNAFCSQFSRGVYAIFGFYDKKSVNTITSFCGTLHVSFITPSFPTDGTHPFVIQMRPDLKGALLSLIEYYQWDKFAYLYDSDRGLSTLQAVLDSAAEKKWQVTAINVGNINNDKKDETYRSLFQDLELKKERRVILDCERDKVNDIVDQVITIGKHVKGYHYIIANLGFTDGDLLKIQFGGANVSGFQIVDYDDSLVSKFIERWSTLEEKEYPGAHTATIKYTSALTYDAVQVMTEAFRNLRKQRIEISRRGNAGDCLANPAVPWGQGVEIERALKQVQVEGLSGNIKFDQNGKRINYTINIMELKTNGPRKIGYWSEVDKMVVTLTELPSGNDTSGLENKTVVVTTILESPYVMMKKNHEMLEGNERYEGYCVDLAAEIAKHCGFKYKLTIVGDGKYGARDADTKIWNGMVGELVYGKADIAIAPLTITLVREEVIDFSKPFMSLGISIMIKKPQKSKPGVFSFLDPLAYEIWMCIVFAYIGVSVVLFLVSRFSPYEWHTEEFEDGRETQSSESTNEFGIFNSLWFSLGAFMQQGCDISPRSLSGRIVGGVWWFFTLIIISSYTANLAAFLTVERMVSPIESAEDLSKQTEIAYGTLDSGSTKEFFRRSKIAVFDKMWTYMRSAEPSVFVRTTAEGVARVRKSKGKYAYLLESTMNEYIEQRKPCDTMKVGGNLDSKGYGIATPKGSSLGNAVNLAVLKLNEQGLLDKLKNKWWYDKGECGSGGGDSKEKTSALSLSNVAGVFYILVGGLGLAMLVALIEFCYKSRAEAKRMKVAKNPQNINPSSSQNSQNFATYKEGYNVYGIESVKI
UniProt P19490, residues 19-907: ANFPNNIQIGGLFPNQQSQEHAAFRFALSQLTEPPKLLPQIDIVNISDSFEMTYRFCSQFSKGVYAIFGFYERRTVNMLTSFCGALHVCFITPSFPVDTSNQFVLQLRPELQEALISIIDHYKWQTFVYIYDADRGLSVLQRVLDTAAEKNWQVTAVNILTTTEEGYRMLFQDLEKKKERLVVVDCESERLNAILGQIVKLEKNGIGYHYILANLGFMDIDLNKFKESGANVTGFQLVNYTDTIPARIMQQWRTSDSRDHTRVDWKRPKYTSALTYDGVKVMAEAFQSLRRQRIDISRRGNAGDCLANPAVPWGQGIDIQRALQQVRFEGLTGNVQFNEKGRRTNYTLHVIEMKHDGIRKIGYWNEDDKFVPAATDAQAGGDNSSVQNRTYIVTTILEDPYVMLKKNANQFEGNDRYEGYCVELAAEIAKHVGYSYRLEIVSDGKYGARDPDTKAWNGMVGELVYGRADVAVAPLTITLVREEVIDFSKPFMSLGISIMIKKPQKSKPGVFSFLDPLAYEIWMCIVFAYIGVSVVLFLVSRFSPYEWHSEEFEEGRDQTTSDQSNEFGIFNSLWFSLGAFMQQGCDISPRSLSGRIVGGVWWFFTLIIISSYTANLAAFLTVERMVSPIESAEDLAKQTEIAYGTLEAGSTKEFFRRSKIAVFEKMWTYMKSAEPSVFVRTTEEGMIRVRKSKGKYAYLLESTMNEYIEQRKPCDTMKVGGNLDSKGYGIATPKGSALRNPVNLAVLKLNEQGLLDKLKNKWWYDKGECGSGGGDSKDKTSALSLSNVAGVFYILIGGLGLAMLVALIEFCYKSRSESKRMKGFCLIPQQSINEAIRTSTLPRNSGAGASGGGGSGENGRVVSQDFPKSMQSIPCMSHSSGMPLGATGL
UniProt P46462: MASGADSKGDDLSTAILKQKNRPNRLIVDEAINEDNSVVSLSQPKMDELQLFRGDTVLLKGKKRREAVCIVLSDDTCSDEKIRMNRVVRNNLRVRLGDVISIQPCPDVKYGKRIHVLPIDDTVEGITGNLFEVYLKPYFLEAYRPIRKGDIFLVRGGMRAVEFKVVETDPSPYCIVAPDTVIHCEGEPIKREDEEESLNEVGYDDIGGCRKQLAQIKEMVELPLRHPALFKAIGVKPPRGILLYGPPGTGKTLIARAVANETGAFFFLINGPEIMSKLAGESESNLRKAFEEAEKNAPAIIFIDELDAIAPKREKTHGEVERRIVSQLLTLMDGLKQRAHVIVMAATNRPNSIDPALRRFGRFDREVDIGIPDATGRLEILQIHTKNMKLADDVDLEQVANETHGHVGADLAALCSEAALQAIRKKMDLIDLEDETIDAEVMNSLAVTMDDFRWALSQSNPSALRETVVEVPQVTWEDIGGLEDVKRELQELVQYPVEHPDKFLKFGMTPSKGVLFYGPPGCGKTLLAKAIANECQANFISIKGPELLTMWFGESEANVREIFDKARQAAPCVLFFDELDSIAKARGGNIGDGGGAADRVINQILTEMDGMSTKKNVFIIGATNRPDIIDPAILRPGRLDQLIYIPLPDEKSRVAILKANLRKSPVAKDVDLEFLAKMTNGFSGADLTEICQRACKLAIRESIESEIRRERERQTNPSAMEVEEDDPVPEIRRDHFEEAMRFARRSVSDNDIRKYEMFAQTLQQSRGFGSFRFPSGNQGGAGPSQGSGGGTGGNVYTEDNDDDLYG

Key:
[1] = target: GluA2 subunit of native AMPARs, endogenous (rat (endogenous in hippocampus)) (UniProt P19491); test: affinity purification with mass spectrometry; anti-GluA1 or anti-GluA2 immunoprecipitates from adult rat hippocampal homogenates; Coomassie-stained gel, band of about 97 kDa cut out, in-gel trypsin, MALDI-TOF, MASCOT
[2] = target: GluA1 subunit of native AMPARs, endogenous (rat (endogenous in hippocampus)) (UniProt P19490); test: as above

Substance: p97 (valonsin-containing protein), endogenous (from UniProt P46462 1-806)
- binding [1]: no binding
- binding [2]: binds
